From PMC11890758
No constants are given. Whether binding was seen depends on the method and setting. In cells and extracts the contact can be indirect. A result given as binding can be weak or reduced; the word gives no strength. Sequences can lack the tags named with a protein.

Biological target: T1, GST-LKB1 (UniProt Q15831)
T1 sequence: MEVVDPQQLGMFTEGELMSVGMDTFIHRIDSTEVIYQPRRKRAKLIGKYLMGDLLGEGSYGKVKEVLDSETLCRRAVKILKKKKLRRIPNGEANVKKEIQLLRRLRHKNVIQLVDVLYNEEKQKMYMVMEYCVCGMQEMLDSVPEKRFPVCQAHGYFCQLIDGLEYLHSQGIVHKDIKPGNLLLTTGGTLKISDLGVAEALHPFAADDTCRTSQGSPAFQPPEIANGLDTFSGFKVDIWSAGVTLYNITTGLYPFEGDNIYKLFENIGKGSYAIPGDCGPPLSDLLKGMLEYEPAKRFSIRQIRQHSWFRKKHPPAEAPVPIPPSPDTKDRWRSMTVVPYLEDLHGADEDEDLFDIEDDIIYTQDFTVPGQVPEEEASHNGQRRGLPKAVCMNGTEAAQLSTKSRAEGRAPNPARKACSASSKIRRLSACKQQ
Experiment: pull-down; GST pull-down from lysate of HEK293T cells co-expressing a GST-tagged and a Venus-Flag-tagged protein; 1% NP-40 lysis buffer (20 mM Tris-HCl, 150 mM NaCl, 5% glycerol, 2 mM EDTA), glutathione sepharose beads, 4 C for 2 h, immunoblot; cells serum-starved overnight for Fig. 1H

Substance: Venus-Flag-tagged cIAP1 N-terminal truncation (N) (human) (domain or fragment)
- binding: binds
